Results reported in patent US20140127133A1, “METHOD FOR EVALUATING A MENTAL DISORDER” (priority 2011, published 2014).
Entries after “also recorded” stand apart in the source; their conditions may differ. At least one compound was matched to its structure with a doubt left.

Experiments:
Format in all cases: in vivo, mouse
Otx2 mutants [1] = assay: Open field locomotor activity after olanzapine; settings: 1 mg/kg olanzapine s.c., 60 min after injection, assessed for 60 min
Otx2 mutants [2] = assay: Elevated plus maze (risk-taking behaviour) after olanzapine; settings: 60 minutes after olanzapine
Otx2 mutants [3] = assay: Dark-light box (risk-taking behaviour) after olanzapine; settings: 60 minutes after olanzapine, recorded 10 minutes
Otx2 mutants [4] = assay: Forced swim test (FST) after olanzapine; settings: both WT and Otx2 animals, 60 minutes after olanzapine, last 4 min of 6 min trial, F=18.03, p<0.001

Cc1cc2c(s1)Nc1ccccc1N=C2N1CCN(C)CC1 [olanzapine, Olanzapine]
locomotor activity (hyperactivity) in the open field (Otx2 mutants [1]; Otx2 mutants): abrogated; also recorded: reduced hyperactivity in Otx2 mutants
locomotor activity in the open field (Otx2 mutants [1]; WT mice, F=4.834, p=0.034): reduced the activity of WT mice; also recorded: decreased activity of both WT and 01×2 animals
time spent in open arms of the EPM (Otx2 mutants [2]; recorded 5 min): didn't reach statistical significance
percentage of entries into open arms (Otx2 mutants [2]; Otx2 animals, recorded 5 min, FGenotype×Treatment=4.663, p=0.038): reversed; also recorded: specifically reduced
general activity (number of entries to all arms of the EPM) (Otx2 mutants [2]; both WT and Otx2 groups, F=6.065, p=0.018): decreased general activity of both groups
time spent in the light compartment (Otx2 mutants [3]; Otx2 mutants, FGenotype×Treatment=2.886, p=0.098): reduced the time Otx2 mutants spent in the light compartment
time spent in the light compartment (Otx2 mutants [3]; WT animals): increased the time WT animals were present in the light compartment
immobile time in the forced swim test (Otx2 mutants [4]): increased immobile time for both WT and Otx2 animals
immobile time in the forced swim test (Otx2 mutants [4]; listed as Olanzapine): increased immobility time for both groups
